Assay results reported in patent EP0994948B1, “TGF BETA RII RECEPTOR NUCLEIC SEQUENCE, CODED PEPTIDE, AND USES” (TRANSGENE S.A., priority 1998, dated 2001).
Part of at least one peptide drawing is inferred or uncertain, most often the ends.

Test system: effecteurs T cytolytiques
Assay: CRT (Chromium release test) on splenocytes of peptide-immunised mice: induction of cytolytic T effectors
Assay type: in vivo, souris transgénique A2/R^b exprimant le HLA/A2
[1] = mice immunised s.c. with the peptide + HBVc 128-140 in IFA, CRT with the same peptide (+ peptide)
[2] = mice immunised s.c. with the peptide + HBVc 128-140 in IFA, CRT without peptide (+ 0)

Row | SMILES | % de lyse [1] | % de lyse [2] | capacité à induire des effecteurs T cytolytiques (conclusion from the CRT test, A2/R^b transgenic mice) | % de lyse (control mice p0 (IFA + NaCl + HBVc 128-140 only), CRT with p5 (+ p5))
1 | CC[C@H](C)[C@H](NC(=O)CNC(=O)[C@H](C)NC(=O)[C@H](C)N)C(=O)NCC(=O)N[C@H](C(=O)N[C@@H](CC(C)C)C(=O)N[C@H](C(=O)N[C@H](C(=O)O)C(C)C)[C@@H](C)O)[C@@H](C)CC [pMART, reference compound] | 0% | 0% |  | 
2 | CC(C)C[C@H](NC(=O)[C@@H](N)CCCNC(=N)N)C(=O)N[C@@H](CO)C(=O)N[C@@H](CO)C(=O)N[C@@H](CS)C(=O)N[C@H](C(=O)N1CCC[C@H]1C(=O)N[C@H](C(=O)N[C@@H](C)C(=O)O)C(C)C)C(C)C [peptide de SEQ ID NO : 5, RLSSCVPVA] | 37% | 0% | induire des effecteurs T cytolytiques | 0%
